# Like-named read-outs stand apart in the source and are kept apart here.
# Assays:
# CT DNA [1] = settings: cited from earlier work
# CT DNA [2] = experiment: Binding study with CT DNA by UV-vis spectroscopy; design: species or system calf
# Method: Initially, the UV–vis spectra of complexes 1–5 (2.5 × 10^−5 – 1 × 10^−4 M) were recorded in the presence of incremental amounts of CT DNA (Figure 4), and the changes of the λmax of the bands observed in the spectra of the complexes were monitored as a means to study the interaction between complexes and CT DNA [50] and to calculate the corresponding DNA-binding constants (Kb). As observed, in the UV–vis spectra of the complexes, at least two bands were observed: band I in the range 314–339 nm and band II in the region 380–428 nm. […] These features indicate the interaction of the complexes with CT DNA [51], but may not provide sufficient information to reveal the possible interaction mode. Therefore, for the elucidation of the CT DNA interaction mode, further experiments involving DNA-viscosity measurements and competitive studies with EB were performed. […]
# S2Binding studies with CT DNA
# The interaction of the compounds with CT DNA was studied by UV-vis spectroscopy, viscosity measurements a nd via competit ive stud ie s with EB by fl uorescence […]
# S2.1 Binding study with CT DNA by UV -vis spectroscopy
# The interaction of the compounds with CT DNA has been studied by UV-vis spectroscopy in order to investigate the possible binding modes to CT DNA and to calculate the DNA-binding constants (Kb). The Kb constants (in M-1) were determined by the Wolfe-Shimer equation (eq. S1) [S3] and the plots [DNA]/(εA-εf) versus [DNA] using the UV-vis spectra of the compounds (20 -100 μM) recorded for a constant concentration with increasing concentrations of CT DNA for diverse [complex]/[DNA] mixing ratios (= r ).
# Control experiments with DMSO were performed and no changes in the spectra of CT DNA were observed. […]
# [DNA] = [DNA] + 1 (eq. S1) […]
# where [DNA] is the concentration of DNA in base pa irs, εA = Aobsd/[compound ], εf = the extinction coefficient for the free compound and ε b = the extinction coefficient for the compound in the fully bound form. Kb is given by the ratio of slope to the y intercept in plots [DNA]/(εA-εf) versus[DNA]. […]
# [3] = first UV band listed in the cell (295–334 nm)
# [4] = second UV band listed in the cell (330–421 nm)
SMILES,"Δλ, blue-/red-shift of λmax upon addition of CT DNA (CT DNA [1]; band at 334 nm)","Δλ, blue-/red-shift of λmax upon addition of CT DNA (CT DNA [1]; band at 421 nm) [nm]","Δλ, blue-/red-shift of λmax upon addition of CT DNA (CT DNA [2]; [3])","Δλ, blue-/red-shift of λmax upon addition of CT DNA (CT DNA [2]; [4])","Δλ, blue-/red-shift of λmax upon addition of CT DNA (CT DNA [2]; third UV band listed in the cell (405 nm))"
"O=Cc1cc(F)ccc1O [5–F–saloH, 5–fluoro–salicylaldehyde]",+1 nm,0,,,
"O=Cc1cc(F)ccc1[O-].O=Cc1cc(F)ccc1[O-].[Cu+2] [Complex 1, [Cu(5–F–salo)2]]",,,+16 nm,+20 nm,
"O=Cc1cc(F)ccc1[O-].[Cl-].[Cu+2].c1ccc(Nc2ccccn2)nc1 [Complex 2, [Cu(5–F–salo)(bipyam)Cl]]",,,−3 nm,+20 nm,
"CO.Cc1ccc2ccc3ccc(C)nc3c2n1.O=Cc1cc(F)ccc1[O-].[Cl-].[Cu+2] [Complex 3, [Cu(5–F–salo)(neoc)Cl].CH3OH]",,,+5 nm,+4 nm,
"O=Cc1cc(F)ccc1[O-].O=[N+]([O-])[O-].[Cu+2].c1cnc2c(c1)ccc1cccnc12 [Complex 4, [Cu(5–F–salo)(phen)(NO3)]]",,,+4 nm,−4 nm,+19 nm
